# Experimental data published in patent US10159667B2, “Composition containing a DPP-IV inhibitor for preventing or treating renal diseases” (DONG-A ST CO., LTD, priority 2013, dated 2018).
# Tested on: db/db mice
# Test: Weight, food intake, water intake, fasting blood glucose, urine output, HbA1c and blood pressure in db/db mice
# Assay type: in vivo
# Experimental: 6-week old mice were used. db/m mice were set as the non-diabetic control group (7 for each stage, n=28), and divided db/db mice into the diabetic group (7 for each stage, n=28) and DA1229 administration group (n=8). 0.3% (W/W, 300 mg/kg/day) of DA1229, a DPP-IV inhibitor, was mixed with feed and provided to the DA1229 administration group while only feed was provided to the diabetic group. Weight, food intake, water intake, fasting blood glucose, urine output, hemoglobin A1c value (HbA1c) and blood pressure (i.e. systolic blood pressure, SBP) of the non-diabetic control group (db/m control group) and the diabetic group (db/db) were measured at week 0, 4, 8 and 12 of administration; and that of the DA1229 administration group were measured at week 12. HbA1c was measured by using the DCA 2000+ (Bayer Healthcare, Wuppertal, Germany) Analyzer.
# [1] = DA1229 0.3% W/W in feed (300 mg/kg/day), wk 12, mean ± SEM
# [2] = DA1229 administered for 12 weeks
compound,measurement,setting,value
"CC(C)(C)OC[C@@H]1C(=O)NCCN1C(=O)C[C@H](N)Cc1cc(F)c(F)cc1F [DA1229, (R)-4-{(R)-3-amino-4-(2,4,5-trifluorophenyl)butanoyl}-3-(t-butoxymethyl)piperazin-2-one]",Daily Food Intake,[1],5.67 ± 0.08 g
same,SBP,[1],124 ± 11 mmHg
same,Weight,[1],57.2 ± 2.5 g
same,food intake compared to the diabetic group,[2],no significant differences
same,weight compared to the diabetic group,[2],no significant differences
